Key:
[1] = Evaluation of fluoride compound release level by 1H-NMR of trapped liquid during preparation of 1-MCP; details: precursor + tetrabutylammonium fluoride hydrate in DMSO, 25° C., 2 hours, trap at −78° C., CDCl3
[2] = F-detection by ion chromatography, release of fluoride compounds during preparation of 1-MCP; details: 0.010 mol precursor reacted with tetrabutylammonium fluoride in DMSO, 25° C., nitrogen purge, discharged gas passed through 50 ml distilled water over 30 minutes; for F^− adsorption tube 1 (F^− concentration trapped): first tube; for F^− adsorption tube 2 (F^− concentration trapped): second tube

SMILES | Volatile fluorosilane/siloxane byproducts in trapped liquid (1H-NMR peaks at δ=−0.3 to +0.5) [1] | F^− adsorption tube 1 (F^− concentration trapped) [2] [ppm] | F^− adsorption tube 2 (F^− concentration trapped) [2] [ppm]
CCCC[Si](C)(C)C1CC1(C)OS(C)(=O)=O (stereo not drawn) [Example 3, 1-methyl-1-(methanesulfonyloxy)-2-(dimethylbutylsilyl)cyclopropane] | the corresponding byproducts were not observed | 0.12 | 0.06
CC1(OS(C)(=O)=O)CC1[Si](C)(C)c1ccccc1 (stereo not drawn) [Example 6, 1-methyl-1-(methanesulfonyloxy)-2-(dimethylphenylsilyl)cyclopropane] | the corresponding byproducts were not observed | 0.09 | 0.05
CC1(OS(C)(=O)=O)CC1[Si](C)(C)C (stereo not drawn) [Comparative Example 1, 1-methyl-1-(methanesulfonyloxy)-2-(trimethylsilyl)cyclopropane, reference compound] | obtained as byproducts | 132 | 63
